The other results are listed elsewhere or left out.
Assays:
Assay in all cases: log2 fold change, soluble protein after heating vs DMSO (PISA); higher = thermal stabilisation; K562 lysate, 10 uM; active = over 0.2 and 3.5 SD of the protein, either way, in both replicates (recomputed)
[1] = compound: CCCS(=O)(=O)Nc1ccc(F)c(C(=O)c2c[nH]c3ncc(-c4ccc(Cl)cc4)cc23)c1F [vemurafenib]
How it was run: (§1)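 Soluble protein was defined as the supernatant remaining after 21,000xg for 90 min, following pooling of heated aliquots and adjustment to 0.5% NP-40 at 4°C. Before that, crude K562 extract at 1 mg/mL protein in PBS pH 7.4 with 1 mM MgCl2 was treated with 10 μM compound for 30 min and heated for 3 min across 48°C-58°C. Quantification used TMTpro 16plex LC-MS/MS with channel sums equalised, and values are log-two fold changes in thermal stability relative to solvent controls from duplicates.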

The chains behind the UniProt entries cited, without tags or fusion partners. Where a name states a change or a piece, a line headed by the entry shows the natural chain unless it says otherwise.
UniProt Q9UIJ7: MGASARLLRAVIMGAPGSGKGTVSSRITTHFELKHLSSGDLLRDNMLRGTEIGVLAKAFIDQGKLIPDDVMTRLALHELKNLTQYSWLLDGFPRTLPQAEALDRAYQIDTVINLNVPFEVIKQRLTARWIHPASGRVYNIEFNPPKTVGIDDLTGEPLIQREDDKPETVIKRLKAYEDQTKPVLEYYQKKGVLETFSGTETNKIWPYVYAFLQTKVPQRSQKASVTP
UniProt Q96EY9: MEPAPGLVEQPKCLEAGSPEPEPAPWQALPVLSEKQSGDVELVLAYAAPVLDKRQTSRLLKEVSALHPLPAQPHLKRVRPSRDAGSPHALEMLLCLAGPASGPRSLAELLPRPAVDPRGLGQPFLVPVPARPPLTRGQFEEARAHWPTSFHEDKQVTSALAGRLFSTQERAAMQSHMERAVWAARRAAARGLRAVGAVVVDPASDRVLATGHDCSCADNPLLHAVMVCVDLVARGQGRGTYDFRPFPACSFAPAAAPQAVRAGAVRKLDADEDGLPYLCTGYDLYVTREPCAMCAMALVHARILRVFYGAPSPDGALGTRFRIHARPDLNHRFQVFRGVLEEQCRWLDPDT
UniProt Q03154: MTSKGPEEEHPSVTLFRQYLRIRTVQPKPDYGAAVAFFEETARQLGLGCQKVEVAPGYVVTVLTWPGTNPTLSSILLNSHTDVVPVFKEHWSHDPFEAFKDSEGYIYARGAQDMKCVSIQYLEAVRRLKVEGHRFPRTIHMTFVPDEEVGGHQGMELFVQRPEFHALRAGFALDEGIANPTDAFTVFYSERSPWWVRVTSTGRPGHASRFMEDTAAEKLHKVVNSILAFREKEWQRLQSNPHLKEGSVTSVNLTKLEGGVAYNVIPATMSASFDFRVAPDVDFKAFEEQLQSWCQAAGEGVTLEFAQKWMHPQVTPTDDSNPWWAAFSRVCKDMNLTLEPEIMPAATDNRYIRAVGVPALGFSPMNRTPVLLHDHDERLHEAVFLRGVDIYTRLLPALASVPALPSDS
UniProt Q02952: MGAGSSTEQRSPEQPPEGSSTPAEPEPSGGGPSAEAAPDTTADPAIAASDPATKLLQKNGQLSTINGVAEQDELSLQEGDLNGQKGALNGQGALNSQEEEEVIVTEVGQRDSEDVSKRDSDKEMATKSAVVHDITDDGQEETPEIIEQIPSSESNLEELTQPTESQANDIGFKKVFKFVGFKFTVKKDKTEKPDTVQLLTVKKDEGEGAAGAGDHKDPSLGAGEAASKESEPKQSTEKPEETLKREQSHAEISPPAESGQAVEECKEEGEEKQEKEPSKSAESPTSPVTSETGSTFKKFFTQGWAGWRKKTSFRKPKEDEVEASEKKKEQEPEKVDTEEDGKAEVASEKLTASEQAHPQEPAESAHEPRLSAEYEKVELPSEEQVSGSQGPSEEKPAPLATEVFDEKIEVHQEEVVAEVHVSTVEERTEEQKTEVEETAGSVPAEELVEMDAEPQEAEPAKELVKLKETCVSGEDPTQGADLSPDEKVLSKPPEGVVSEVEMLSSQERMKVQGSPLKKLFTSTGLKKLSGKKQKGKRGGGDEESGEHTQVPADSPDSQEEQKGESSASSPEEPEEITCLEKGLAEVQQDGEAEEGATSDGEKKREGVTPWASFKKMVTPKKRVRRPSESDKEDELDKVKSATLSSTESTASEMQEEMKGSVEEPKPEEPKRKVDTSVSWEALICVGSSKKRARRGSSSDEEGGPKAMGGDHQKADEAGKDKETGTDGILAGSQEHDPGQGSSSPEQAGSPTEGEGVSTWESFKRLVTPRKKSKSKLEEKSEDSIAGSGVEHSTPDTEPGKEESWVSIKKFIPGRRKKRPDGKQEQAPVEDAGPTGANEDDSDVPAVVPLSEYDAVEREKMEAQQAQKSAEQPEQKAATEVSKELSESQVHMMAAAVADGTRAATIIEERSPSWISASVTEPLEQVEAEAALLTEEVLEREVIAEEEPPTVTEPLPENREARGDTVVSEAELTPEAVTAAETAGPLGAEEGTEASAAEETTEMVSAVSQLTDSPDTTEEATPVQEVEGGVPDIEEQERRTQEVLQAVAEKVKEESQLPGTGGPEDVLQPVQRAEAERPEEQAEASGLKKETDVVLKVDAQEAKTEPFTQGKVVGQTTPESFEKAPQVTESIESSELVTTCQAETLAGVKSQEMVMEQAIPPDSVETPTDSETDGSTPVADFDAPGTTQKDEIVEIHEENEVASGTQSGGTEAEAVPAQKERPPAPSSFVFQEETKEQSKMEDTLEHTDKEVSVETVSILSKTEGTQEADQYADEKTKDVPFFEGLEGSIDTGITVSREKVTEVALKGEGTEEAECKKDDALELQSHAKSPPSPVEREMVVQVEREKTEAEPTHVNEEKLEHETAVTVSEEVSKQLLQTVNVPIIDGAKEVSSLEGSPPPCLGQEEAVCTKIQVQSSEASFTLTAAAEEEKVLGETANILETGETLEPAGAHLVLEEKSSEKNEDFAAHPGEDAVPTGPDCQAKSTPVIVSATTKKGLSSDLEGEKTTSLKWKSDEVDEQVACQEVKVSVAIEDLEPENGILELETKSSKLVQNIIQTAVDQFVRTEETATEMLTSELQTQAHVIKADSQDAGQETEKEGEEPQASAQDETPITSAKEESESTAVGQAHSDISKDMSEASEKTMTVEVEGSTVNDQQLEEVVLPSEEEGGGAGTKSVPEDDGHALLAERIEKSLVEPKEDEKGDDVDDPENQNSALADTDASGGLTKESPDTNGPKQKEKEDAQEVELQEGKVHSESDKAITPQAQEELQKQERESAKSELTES
UniProt P35612: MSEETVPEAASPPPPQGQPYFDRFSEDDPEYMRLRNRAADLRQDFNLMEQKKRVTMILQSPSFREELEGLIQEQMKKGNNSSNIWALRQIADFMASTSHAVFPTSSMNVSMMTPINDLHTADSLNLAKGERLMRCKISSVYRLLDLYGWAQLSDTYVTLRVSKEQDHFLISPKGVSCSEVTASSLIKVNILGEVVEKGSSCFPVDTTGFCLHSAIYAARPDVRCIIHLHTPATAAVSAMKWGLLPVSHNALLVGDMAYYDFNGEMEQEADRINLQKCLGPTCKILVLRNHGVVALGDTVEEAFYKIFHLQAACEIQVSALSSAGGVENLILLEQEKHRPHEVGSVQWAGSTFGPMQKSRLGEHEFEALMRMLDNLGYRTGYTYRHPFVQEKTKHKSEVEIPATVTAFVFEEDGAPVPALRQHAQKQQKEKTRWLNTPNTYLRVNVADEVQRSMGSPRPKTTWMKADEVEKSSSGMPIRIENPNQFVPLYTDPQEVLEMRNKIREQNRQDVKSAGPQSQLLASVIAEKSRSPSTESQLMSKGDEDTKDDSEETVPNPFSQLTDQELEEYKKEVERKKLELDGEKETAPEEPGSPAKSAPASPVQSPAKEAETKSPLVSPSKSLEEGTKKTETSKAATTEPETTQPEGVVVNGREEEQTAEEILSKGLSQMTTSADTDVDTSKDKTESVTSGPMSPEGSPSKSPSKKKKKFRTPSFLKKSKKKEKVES
UniProt O43865, whole entry, looked up: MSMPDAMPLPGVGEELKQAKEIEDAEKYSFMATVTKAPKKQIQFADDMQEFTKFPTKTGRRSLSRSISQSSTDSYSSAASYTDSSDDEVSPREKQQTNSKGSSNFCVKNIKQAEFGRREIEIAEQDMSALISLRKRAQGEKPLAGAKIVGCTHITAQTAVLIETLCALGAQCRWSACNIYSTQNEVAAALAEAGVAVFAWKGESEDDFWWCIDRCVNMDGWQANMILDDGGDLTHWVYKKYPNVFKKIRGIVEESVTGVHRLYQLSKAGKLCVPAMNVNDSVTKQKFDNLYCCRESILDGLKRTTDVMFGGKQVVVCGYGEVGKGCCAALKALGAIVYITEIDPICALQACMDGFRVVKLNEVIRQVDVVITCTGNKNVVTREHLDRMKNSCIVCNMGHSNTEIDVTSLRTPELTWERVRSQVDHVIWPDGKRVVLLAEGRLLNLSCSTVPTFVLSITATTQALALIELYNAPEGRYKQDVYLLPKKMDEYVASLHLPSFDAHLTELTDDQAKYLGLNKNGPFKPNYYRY
UniProt Q9H568: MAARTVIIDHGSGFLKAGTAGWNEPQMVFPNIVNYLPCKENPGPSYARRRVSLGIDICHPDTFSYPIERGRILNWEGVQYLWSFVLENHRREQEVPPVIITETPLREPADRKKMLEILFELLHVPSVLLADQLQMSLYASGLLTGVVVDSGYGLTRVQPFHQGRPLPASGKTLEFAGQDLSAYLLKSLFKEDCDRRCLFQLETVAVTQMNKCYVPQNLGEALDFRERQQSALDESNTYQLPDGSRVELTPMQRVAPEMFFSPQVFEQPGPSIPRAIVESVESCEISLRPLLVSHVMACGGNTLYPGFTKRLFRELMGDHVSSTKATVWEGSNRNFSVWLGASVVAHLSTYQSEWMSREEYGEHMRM
UniProt Q9UHB7: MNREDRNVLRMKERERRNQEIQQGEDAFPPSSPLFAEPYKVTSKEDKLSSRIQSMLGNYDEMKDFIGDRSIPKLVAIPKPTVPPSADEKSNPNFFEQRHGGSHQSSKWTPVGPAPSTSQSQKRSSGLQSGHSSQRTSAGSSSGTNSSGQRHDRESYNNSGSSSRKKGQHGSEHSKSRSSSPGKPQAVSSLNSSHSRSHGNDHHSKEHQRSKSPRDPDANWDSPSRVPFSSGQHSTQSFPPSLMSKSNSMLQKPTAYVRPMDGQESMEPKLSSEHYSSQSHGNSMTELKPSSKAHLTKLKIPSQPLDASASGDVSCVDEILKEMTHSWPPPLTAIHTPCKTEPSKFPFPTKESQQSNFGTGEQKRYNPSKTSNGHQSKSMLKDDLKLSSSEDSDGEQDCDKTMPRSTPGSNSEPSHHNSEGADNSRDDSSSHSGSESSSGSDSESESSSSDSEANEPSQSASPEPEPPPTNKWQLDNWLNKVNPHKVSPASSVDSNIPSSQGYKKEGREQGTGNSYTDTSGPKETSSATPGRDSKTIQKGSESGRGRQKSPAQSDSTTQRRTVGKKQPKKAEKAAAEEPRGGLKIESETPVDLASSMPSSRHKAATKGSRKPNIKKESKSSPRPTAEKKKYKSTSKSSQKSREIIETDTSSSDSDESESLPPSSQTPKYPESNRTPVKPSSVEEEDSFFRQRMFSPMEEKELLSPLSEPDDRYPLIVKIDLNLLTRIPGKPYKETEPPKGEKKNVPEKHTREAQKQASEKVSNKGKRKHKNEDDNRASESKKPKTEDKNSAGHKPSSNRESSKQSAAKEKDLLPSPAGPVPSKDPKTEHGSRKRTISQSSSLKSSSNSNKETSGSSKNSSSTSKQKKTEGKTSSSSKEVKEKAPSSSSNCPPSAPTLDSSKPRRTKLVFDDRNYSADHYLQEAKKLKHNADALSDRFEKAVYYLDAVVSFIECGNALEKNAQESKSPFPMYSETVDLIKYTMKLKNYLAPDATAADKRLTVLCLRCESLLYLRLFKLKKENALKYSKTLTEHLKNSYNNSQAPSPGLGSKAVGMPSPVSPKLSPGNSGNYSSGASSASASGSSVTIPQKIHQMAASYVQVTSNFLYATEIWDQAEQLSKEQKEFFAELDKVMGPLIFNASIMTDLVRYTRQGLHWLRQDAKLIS
UniProt P24666: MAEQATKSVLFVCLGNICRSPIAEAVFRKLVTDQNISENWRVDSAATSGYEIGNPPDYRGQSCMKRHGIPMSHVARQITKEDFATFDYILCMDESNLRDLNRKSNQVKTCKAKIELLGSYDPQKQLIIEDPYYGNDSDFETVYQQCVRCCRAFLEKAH
UniProt P61163, whole entry, looked up: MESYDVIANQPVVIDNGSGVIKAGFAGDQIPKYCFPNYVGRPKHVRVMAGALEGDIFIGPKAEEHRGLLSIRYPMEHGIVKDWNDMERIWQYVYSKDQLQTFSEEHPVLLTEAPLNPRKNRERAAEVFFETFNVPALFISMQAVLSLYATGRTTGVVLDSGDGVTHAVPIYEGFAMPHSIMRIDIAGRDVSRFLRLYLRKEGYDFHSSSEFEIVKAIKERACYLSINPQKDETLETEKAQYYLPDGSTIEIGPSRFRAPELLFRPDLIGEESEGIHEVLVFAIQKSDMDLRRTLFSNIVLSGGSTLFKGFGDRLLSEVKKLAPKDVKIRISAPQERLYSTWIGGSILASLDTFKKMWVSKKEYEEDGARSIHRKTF
UniProt Q562R1, whole entry, looked up: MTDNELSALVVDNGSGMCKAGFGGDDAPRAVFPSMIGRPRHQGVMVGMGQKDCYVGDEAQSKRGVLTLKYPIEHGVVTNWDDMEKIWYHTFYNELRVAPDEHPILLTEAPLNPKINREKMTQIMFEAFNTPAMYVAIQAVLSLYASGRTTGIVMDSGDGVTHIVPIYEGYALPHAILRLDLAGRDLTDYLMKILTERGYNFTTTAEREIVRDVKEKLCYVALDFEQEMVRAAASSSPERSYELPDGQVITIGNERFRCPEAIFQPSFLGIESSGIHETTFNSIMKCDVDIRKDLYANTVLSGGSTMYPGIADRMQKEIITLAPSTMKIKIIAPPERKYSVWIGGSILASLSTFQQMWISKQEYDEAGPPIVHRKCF

[2] = compound: CCCS(=O)(=O)Nc1ccc(F)c(C(=O)c2c[nH]c3ncc(Cl)cc23)c1F
How it was run: as §1

[3] = compound: CCN(CCCOc1ccc2c(Nc3cc(CC(=O)Nc4cccc(F)c4)[nH]n3)ncnc2c1)CCOP(=O)(O)O [barasertib]
How it was run: as §1

[4] = compound: CC[C@@H]1C(=O)N(C)c2cnc(Nc3ccc(C(=O)NC4CCN(C)CC4)cc3OC)nc2N1C1CCCC1
How it was run: as §1

[5] = compound: CC[C@@H]1C(=O)N(C)c2cnc(Nc3ccc(C(=O)N[C@H]4CC[C@H](N5CCN(CC6CC6)CC5)CC4)cc3OC)nc2N1C(C)C [volasertib]
How it was run: as §1

[6] = compound: CCn1c(C(=O)N(C2CC2)C2CC2)cc2c3c(ncn3C)c(Nc3cc(C)n(C)n3)nc21
How it was run: as §1

[7] = compound: CCn1cc(-c2ccnc3[nH]c(-c4cccc(CN(C)C)c4)cc23)c(-c2ccc(NC(=O)N(C)C)cc2)n1
How it was run: as §1

[8] = compound: CN1CCC(CNc2ccc3ncc(-c4cccc(OC(F)(F)F)c4)n3n2)CC1
How it was run: as §1

[9] = compound: CN1CCN(CCOc2cc(OC3CCOCC3)c3c(Nc4c(Cl)ccc5c4OCO5)ncnc3c2)CC1 [saracatinib]
How it was run: as §1

[10] = compound: CN1CCN(c2nc(C3=C(c4c[nH]c5ccccc45)C(=O)NC3=O)c3ccccc3n2)CC1 [sotrastaurin]
How it was run: as §1

[11] = compound: CN1CC[C@H](c2c(O)cc(O)c3c(=O)cc(-c4ccccc4Cl)oc23)[C@H](O)C1 [alvocidib]
How it was run: as §1

[12] = compound: CN1CCc2c(c3ccccc3n2Cc2ccc(C(=O)NO)cc2)C1 [Tubastatin A]
How it was run: as §1

[13] = compound: CNC(=O)C1=CC=CC=C1NC2=NC(=NC=C2Cl)NC3=C(C=C(C=C3)N4CCOCC4)OC
How it was run: as §1

[14] = compound: CNC(=O)c1ccc(Nc2ncc(C(F)(F)F)c(NCc3nccnc3N(C)S(C)(=O)=O)n2)cc1 [defactinib]
How it was run: as §1

[15] = compound: CNc1nc(-c2ccc3c(N)n[nH]c3c2)cc(N2C[C@@H](C(=O)NC3CCCCC3)CC[C@H]2C)n1
How it was run: as §1

[16] = compound: COC(=O)N[C@@H](C)CNc1nccc(-c2cn(C(C)C)nc2-c2cc(Cl)cc(NS(C)(=O)=O)c2F)n1 [encorafenib]
How it was run: as §1

[17] = compound: COC(=O)[C@H](CCSC)NC(=O)C1=C(C=C(C=C1)NC[C@H](CS)N)C2=CC=CC=C2
How it was run: as §1

[18] = compound: COc1cc(Nc2ncc3c(n2)-c2ccc(Cl)cc2C(c2c(F)cccc2OC)=NC3)ccc1C(=O)O [alisertib]
How it was run: as §1

[19] = compound: COc1cc2nc(-c3cc(F)ccc3O)nc(N[C@@H]3CNC[C@H]3C(C)(C)O)c2cc1OC
How it was run: as §1

[20] = compound: COc1cc2ncnc(Nc3ccc(F)c(Cl)c3)c2cc1OCCCN1CCOCC1 [gefitinib]
How it was run: as §1

Measured: log2 fold change

AHCY (UniProt P23526)
inactive: [1] -0.032 | [2] 0.001 | [3] -0.019 | [4] -0.007 | [5] 0.018 | [6] 0.009 | [7] -0.067 | [8] 0.046 | [9] -0.007 | [10] -0.017 | [11] -0.007 | [12] 0.012 | [13] 0.013 | [14] -0.019 | [15] 0.019 | [16] -0.021 | [17] -0.068 | [18] 0.006 | [19] 0.007 | [20] -0.002

AK3 (UniProt Q9UIJ7)
inactive: [1] -0.015 | [2] -0.015 | [3] -0.018 | [4] -0.031 | [5] 0.022 | [6] 0.003 | [7] 0.054 | [8] -0.016 | [9] -0.018 | [10] -0.025 | [11] -0.002 | [12] 0.025 | [13] -0.017 | [14] 0.003 | [15] -0.018 | [16] -0.016 | [17] 0.023 | [18] -0.012 | [19] -0.001 | [20] -0.01

ADAT3 (UniProt Q96EY9)
inactive: [1] 0.018 | [2] -0.029 | [3] -0.01 | [4] 0.083 | [5] 0.007 | [6] 0.008 | [7] 0.108 | [8] 0.029 | [9] 0.002 | [10] 0.008 | [11] -0.011 | [12] -0.042 | [13] 0 | [14] 0.027 | [15] 0.006 | [16] -0.003 | [17] -0.065 | [18] -0.012 | [19] -0.019 | [20] -0.021

ACY1 (UniProt Q03154)
inactive: [1] -0.025 | [2] -0.001 | [3] 0.062 | [4] -0.001 | [5] 0.01 | [6] 0.009 | [7] -0.034 | [8] 0.06 | [9] 0.028 | [10] 0.022 | [11] 0.011 | [12] 0.01 | [13] 0.001 | [14] 0.022 | [15] -0.054 | [16] 0.01 | [17] -0.043 | [18] 0 | [19] -0.014 | [20] -0.027

AKAP12 (UniProt Q02952)
inactive: [1] 0.011 | [2] 0.007 | [3] -0.057 | [4] 0.003 | [5] -0.016 | [6] 0.056 | [7] 0.15 | [8] 0.04 | [9] 0.192 | [10] 0.056 | [11] -0.134 | [12] 0.104 | [13] 0.089 | [14] -0.024 | [15] -0.059 | [16] -0.085 | [17] -0.081 | [18] 0.053 | [19] 0.043 | [20] 0.066

ADSS1 (UniProt Q8N142)
inactive: [1] -0.002 | [2] 0.019 | [3] -0.075 | [4] 0.037 | [5] -0.012 | [6] -0.057 | [7] -0.096 | [8] 0.101 | [9] 0.007 | [10] 0.031 | [11] -0.041 | [12] 0.042 | [13] 0.016 | [14] -0.083 | [15] -0.031 | [16] 0.012 | [17] -0.019 | [18] 0.004 | [19] -0.053 | [20] 0.013

ADD2 (UniProt P35612)
inactive: [1] 0.03 | [2] -0.004 | [3] -0.011 | [4] 0.05 | [5] 0.028 | [6] 0.022 | [7] -0.009 | [8] 0.091 | [9] -0.022 | [10] 0.009 | [11] -0.001 | [12] 0.031 | [13] 0.004 | [14] -0.008 | [15] 0.008 | [16] -0.02 | [17] -0.026 | [18] -0.015 | [19] 0.011 | [20] 0.01

AHCYL1 (UniProt O43865)
inactive: [1] 0.018 | [2] 0.021 | [3] -0.001 | [4] 0.001 | [5] -0.073 | [6] -0.021 | [7] -0.055 | [8] -0.012 | [9] -0.021 | [10] 0.006 | [11] 0.025 | [12] -0.096 | [13] 0.051 | [14] 0.06 | [15] 0.037 | [16] 0.01 | [17] 0.009 | [18] -0.041 | [19] -0.003 | [20] -0.012

ACTL8 (UniProt Q9H568)
inactive: [1] 0.033 | [2] 0.004 | [3] -0.052 | [4] 0.101 | [5] -0.004 | [6] -0.075 | [7] -0.034 | [8] 0.031 | [9] 0.031 | [10] -0.026 | [11] 0.039 | [12] 0.006 | [13] -0.005 | [14] -0.122 | [15] -0.061 | [16] 0.021 | [17] 0.024 | [18] -0.042 | [19] 0.003 | [20] -0.098

AFF4 (UniProt Q9UHB7)
inactive: [1] 0.157 | [2] -0.012 | [3] -0.072 | [4] 0.001 | [5] -0.019 | [6] 0.023 | [7] -0.133 | [8] -0.04 | [9] -0.009 | [10] 0.002 | [11] -0.235 | [12] -0.086 | [13] -0.046 | [14] 0.077 | [15] 0.018 | [16] 0.011 | [17] -0.027 | [18] -0.022 | [19] 0.015 | [20] 0.013

ACP1 isoform 2 (UniProt P24666)
inactive: [1] 0.056 | [2] -0.005 | [3] 0.03 | [4] 0.046 | [5] -0.033 | [6] -0.023 | [7] 0 | [8] 0.014 | [9] 0.004 | [10] -0.024 | [11] 0.018 | [12] -0.049 | [13] 0.04 | [14] 0.064 | [15] 0.016 | [16] -0.067 | [17] -0.011 | [18] 0.015 | [19] 0.023 | [20] -0.016

ACP1 (UniProt P24666)
inactive: [1] -0.047 | [2] -0.051 | [3] -0.045 | [4] -0.042 | [5] -0.077 | [6] 0.016 | [7] -0.044 | [8] 0.061 | [9] -0.038 | [10] 0.084 | [11] -0.092 | [12] -0.093 | [13] -0.021 | [14] -0.013 | [15] -0.045 | [16] -0.062 | [17] 0.022 | [18] -0.005 | [19] 0.031 | [20] -0.022

ACP2 (UniProt P11117)
inactive: [1] -0.022 | [2] 0.013 | [3] 0.038 | [4] -0.01 | [5] 0.002 | [6] 0.067 | [7] 0.008 | [8] 0.065 | [9] -0.07 | [10] -0.024 | [11] -0.027 | [12] 0.015 | [13] 0.051 | [14] 0.023 | [15] 0 | [16] 0.058 | [17] -0.037 | [18] -0.019 | [19] 0.055 | [20] 0.001

ACTR1A (UniProt P61163)
inactive: [1] 0 | [2] 0.017 | [3] -0.015 | [4] 0.017 | [5] 0.013 | [6] -0.03 | [7] -0.001 | [8] 0.05 | [9] -0.009 | [10] -0.023 | [11] -0.034 | [12] -0.006 | [13] -0.003 | [14] -0.014 | [15] 0.008 | [16] -0.027 | [17] 0.04 | [18] -0.008 | [19] -0.01 | [20] 0

ACTBL2 (UniProt Q562R1)
inactive: [1] -0.097 | [2] 0.089 | [3] -0.117 | [4] 0.098 | [5] -0.166 | [6] 0.105 | [7] 0.417 | [8] -0.023 | [9] -0.108 | [10] 0.049 | [11] -0.083 | [12] -0.111 | [13] -0.01 | [14] 0.093 | [15] -0.008 | [16] -0.226 | [17] 0.005 | [18] -0.273 | [19] 0.009 | [20] -0.223

ADAL (UniProt Q6DHV7)
inactive: [1] 0.014 | [2] 0.031 | [3] -0.007 | [4] 0.028 | [5] 0.019 | [6] -0.011 | [7] 0.108 | [8] -0.042 | [9] 0.008 | [10] -0.019 | [11] 0.046 | [12] 0.064 | [13] 0.001 | [14] 0.012 | [15] 0.028 | [16] 0.011 | [17] -0.04 | [18] -0.025 | [19] -0.002 | [20] -0.007
